According to patent US6521594B1, “Method and composition for treating thrombosis” (La Jolla Cancer Research Foundation, priority 1990, dated 2003):
Some of these results come from one statement about several compounds together.

Tested on: canine platelets
Experiment: Canine platelet aggregation in vitro (ADP, arachidonic acid, collagen)
Type: cell-based, dog
Conditions: 10 μm ADP, […] arachidonic acid or 9.6 micrograms/ml collagen; canine PRP; read-out: IC50 against canine platelet aggregation
Description: Platelet counts and ex vivo aggregation studies were performed one hour before and 1, 3, and 5 hours after application of anodal direct current.
Epinephrine (550 nM) was used to prime platelets before stimulation with arachidonic acid. Peptides were added in 1% dilutions to the PRP solutions.

Row | Substance | IC50
1 | R(Pen)GHRGDWRCR [4Q] | 1.5 to 5 µM
2 | R(Pen)GRGDWPCR [4R] | 1.5 to 5 µM
